Reference: PubChem BioAssay AID1224830 (NIAID, 2016)

Assay: 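Host factors that control LPS-induced TNF expression in human macrophages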 (primary screen)
Cells: human THP-1 monocytic leukaemia cells, TNF dual-luciferase reporter clone, PMA-differentiated to macrophage-like cells
Reagents: siRNA pool against human genes, 50 nM
Duration: LPS for 4 h, given about 3 days after siRNA transfection
Treatment: bacterial LPS (TLR4 ligand), 10 ng/ml
Detection: 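TNF firefly reporter luminescence divided by renilla, normalised to the plate median, then turned into a robust z-score for each replicate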
Reading the numbers: TNF reporter robust z-score: higher = stronger TNF reporter response to LPS
Call rule: 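Each well counts as active if its z-score is over 2.8 or under -1.5; controls are left without a call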
The whole screen tested about 18,000 reagents; shown is a part drawn at random. In the full data, about 2,900 (16%) were called active. 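Calls are made per well; low scores hint the gene aids the LPS response, high scores that it dampens it.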 Repeated entries: four replicate wells of each siRNA pool. No sequences are given here.

ZXDC
- TNF reporter robust z-score: -0.74
- activity call: inactive

ZXDC
- TNF reporter robust z-score: -1.01
- activity call: inactive

ZXDC
- TNF reporter robust z-score: -1.3
- activity call: inactive

ZXDC
- TNF reporter robust z-score: -0.91
- activity call: inactive

SLC25A16
- TNF reporter robust z-score: 0.36
- activity call: inactive

SLC25A16
- TNF reporter robust z-score: 1.05
- activity call: inactive

SLC25A16
- TNF reporter robust z-score: 0.53
- activity call: inactive

SLC25A16
- TNF reporter robust z-score: 0.59
- activity call: inactive

TMUB1
- TNF reporter robust z-score: 2
- activity call: inactive

TMUB1
- TNF reporter robust z-score: 2.39
- activity call: inactive

TMUB1
- TNF reporter robust z-score: 2.45
- activity call: inactive

TMUB1
- TNF reporter robust z-score: 1.67
- activity call: inactive

CHIC2
- TNF reporter robust z-score: 1.2
- activity call: inactive

CHIC2
- TNF reporter robust z-score: 1.84
- activity call: inactive

CHIC2
- TNF reporter robust z-score: 0.91
- activity call: inactive

CHIC2
- TNF reporter robust z-score: 1.58
- activity call: inactive

ATP5F1E
- TNF reporter robust z-score: -0.41
- activity call: inactive

ATP5F1E
- TNF reporter robust z-score: -0.94
- activity call: inactive

ATP5F1E
- TNF reporter robust z-score: -0.26
- activity call: inactive

ATP5F1E
- TNF reporter robust z-score: -0.8
- activity call: inactive

LGALS12
- TNF reporter robust z-score: -0.59
- activity call: inactive

LGALS12
- TNF reporter robust z-score: -0.14
- activity call: inactive

LGALS12
- TNF reporter robust z-score: 0.06
- activity call: inactive

LGALS12
- TNF reporter robust z-score: -0.2
- activity call: inactive

C2
- TNF reporter robust z-score: -1.04
- activity call: inactive

C2
- TNF reporter robust z-score: -1.38
- activity call: inactive

C2
- TNF reporter robust z-score: -1.18
- activity call: inactive

C2
- TNF reporter robust z-score: -0.4
- activity call: inactive

CNBD2
- TNF reporter robust z-score: -0.47
- activity call: inactive

CNBD2
- TNF reporter robust z-score: 0.02
- activity call: inactive

CNBD2
- TNF reporter robust z-score: 0.8
- activity call: inactive

CNBD2
- TNF reporter robust z-score: 0.24
- activity call: inactive

CDK5R1
- TNF reporter robust z-score: 0.03
- activity call: inactive

CDK5R1
- TNF reporter robust z-score: -0.07
- activity call: inactive

CDK5R1
- TNF reporter robust z-score: -0.2
- activity call: inactive

CDK5R1
- TNF reporter robust z-score: -0.04
- activity call: inactive

FAM20C
- activity call: inactive

FAM20C
- TNF reporter robust z-score: -1.1
- activity call: inactive

FAM20C
- TNF reporter robust z-score: -1.45
- activity call: inactive

FAM20C
- TNF reporter robust z-score: -1.35
- activity call: inactive

ZNF518B
- TNF reporter robust z-score: 0.18
- activity call: inactive

ZNF518B
- TNF reporter robust z-score: 0.26
- activity call: inactive

ZNF518B
- TNF reporter robust z-score: -0.69
- activity call: inactive

ZNF518B
- TNF reporter robust z-score: -0.41
- activity call: inactive

RILPL1
- TNF reporter robust z-score: -1.05
- activity call: inactive

RILPL1
- TNF reporter robust z-score: -1.29
- activity call: inactive

RILPL1
- TNF reporter robust z-score: -0.96
- activity call: inactive

RILPL1
- TNF reporter robust z-score: 1.3
- activity call: inactive
